Among the data in the supplement of paper PMC10735217 are TEAD-luciferase reporter activity values, retold here.

This test relates to HEK293A TEAD-LUC reporter. In words: TEAD-luciferase reporter activity (YAP activation), robust Z score vs plate; higher = stronger YAP/TEAD activation. As to conditions: 24 h. For orientation: A reporter such as luciferase makes a cellular process visible.

The list shows a part of the results. This data set is noisy: repeats of one test often differ as much as different tests do.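 Human kidney-derived cells stably carry a construct in which eight TEAD-binding elements drive luciferase, measured by luminescence in a drug-repurposing library screen. A hit is any compound whose signal exceeds the plate mean by more than five robust Z scores.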

In the case of `CC1CC/C(=N/Nc2ccccc2)c2ncc(C(=O)O)c(=O)n21` (stereo not given) [Chinoin-1045], the TEAD-luciferase reporter activity (compound concentration: 200 nM) is inactive: 0.21, the TEAD-luciferase reporter activity (compound concentration: 2 uM) is inactive: -0.441 and the TEAD-luciferase reporter activity (compound concentration: 10 uM) is inactive: -0.00427.

For `O=C(c1cccnc1)N1CCN(c2cccc(C(F)(F)F)c2)CC1`, the TEAD-luciferase reporter activity runs as follows: (compound concentration: 200 nM) inactive: -1.4; (compound concentration: 2 uM) inactive: -1.97; (compound concentration: 10 uM) inactive: -0.283.

As for `CC1=C(C(=O)OC(C)C)C(c2cccc([N+](=O)[O-])c2)C(C(=O)OC2CN(C(c3ccccc3)c3ccccc3)C2)=C(N)N1` (stereo not given) [azelnidipine], the TEAD-luciferase reporter activity (compound concentration: 200 nM) was inactive: -0.774, the TEAD-luciferase reporter activity (compound concentration: 2 uM) was inactive: -0.0369 and the TEAD-luciferase reporter activity (compound concentration: 10 uM) was inactive: 0.128.

On to `C=CCOC(Cn1ccnc1)c1ccc(Cl)cc1Cl` (stereo not given) [enilconazole], for which the TEAD-luciferase reporter activity runs as follows: (compound concentration: 200 nM) inactive: -1.8; (compound concentration: 2 uM) inactive: -0.628; (compound concentration: 10 uM) inactive: 1.27.

As to `CCCNC[C@]1(O)[C@H](C)O[C@@H](O[C@H]2[C@H](C)[C@@H](O[C@@H]3O[C@H](C)C[C@H](N(C)C)[C@H]3O)[C@](C)(O)C[C@@H](C)CN[C@H](C)[C@@H](O)[C@](C)(O)[C@@H](CC)OC(=O)[C@@H]2C)C[C@@]1(C)OC` [Tulathromycin A], the TEAD-luciferase reporter activity is inactive: -1.89 (compound concentration: 200 nM), inactive: 0.251 (compound concentration: 2 uM) and inactive: -0.119 (compound concentration: 10 uM).

In the case of `Cc1cc(C)nc(NS(=O)(=O)c2ccc(N)cc2)n1`, the TEAD-luciferase reporter activity was inactive: -1.65 (compound concentration: 200 nM), inactive: -1.29 (compound concentration: 2 uM) and inactive: -2.35 (compound concentration: 10 uM).

On to `COC(=O)NC1CCN(c2nc3ncccc3o2)CC1`, for which the TEAD-luciferase reporter activity (compound concentration: 200 nM) is inactive: -0.647 and the TEAD-luciferase reporter activity (compound concentration: 10 uM) was inactive: -0.777.

Turning to `O=C(CSc1nnc(Br)n1-c1ccc(C2CC2)c2ccccc12)Nc1ccc(C(=O)O)cc1Cl`, the TEAD-luciferase reporter activity (compound concentration: 200 nM) was inactive: -1.86, the TEAD-luciferase reporter activity (compound concentration: 2 uM) is inactive: -2.68 and the TEAD-luciferase reporter activity (compound concentration: 10 uM) was inactive: -0.912.

With `CCCCN(CCCC)CCCOc1ccc(C(=O)c2c(-c3ccccc3)c(Br)c3ccccn23)cc1Cl` [rilozarone], the TEAD-luciferase reporter activity by setting is: (compound concentration: 200 nM) inactive: -0.14; (compound concentration: 2 uM) inactive: -0.858; (compound concentration: 10 uM) inactive: 0.865.

In the case of `CC(C)OC(=O)COc1cccc(CN(Cc2ccc(-n3cccn3)cc2)S(=O)(=O)c2cccnc2)c1` [Taprenepag isopropyl], the TEAD-luciferase reporter activity (compound concentration: 200 nM) is inactive: -0.946, the TEAD-luciferase reporter activity (compound concentration: 2 uM) was inactive: -0.604 and the TEAD-luciferase reporter activity (compound concentration: 10 uM) was inactive: 0.546.

As for `CN1CCC(C(=O)N2CCC3(CC2)CC(NC(=O)N(C)C)c2ccccc2O3)CC1` (stereo not given), the TEAD-luciferase reporter activity reads like this: (compound concentration: 200 nM) inactive: -1.96; (compound concentration: 10 uM) inactive: -0.948.

On to `CC(=O)C(=Cc1cc(O)c(O)c([N+](=O)[O-])c1)C(C)=O`, for which the TEAD-luciferase reporter activity is, setting by setting: (compound concentration: 200 nM) inactive: -0.644; (compound concentration: 2 uM) inactive: -0.777; (compound concentration: 10 uM) inactive: -0.539.

Consider `CC12CCC(C[N+](C)(CCC[N+](C)(C)C)C1)C2(C)C` (stereo not given), for which the TEAD-luciferase reporter activity (compound concentration: 200 nM) was inactive: -1.95, the TEAD-luciferase reporter activity (compound concentration: 2 uM) is inactive: -0.898 and the TEAD-luciferase reporter activity (compound concentration: 10 uM) is inactive: 0.54.

Take `CCC[C@H](N[C@@H](C)C(=O)N1[C@H](C(=O)O)C[C@@H]2CCCC[C@@H]21)C(=O)OCC` [perindopril]: the TEAD-luciferase reporter activity (compound concentration: 2 uM) was inactive: -0.57.

`CCC[C@H](N[C@@H](C)C(=O)N1[C@H](C(=O)O)C[C@@H]2CCCC[C@@H]21)C(=O)OCC`: the TEAD-luciferase reporter activity is, setting by setting: (compound concentration: 200 nM) inactive: -1.72; (compound concentration: 10 uM) inactive: -0.309.
